In paper PMC11792023, “PNPO‐Mediated Oxidation of DVL3 Promotes Multiple Myeloma Malignancy and Osteoclastogenesis by Activating the Wnt/β‐Catenin Pathway” (Advanced Science, 2024):
Results are given in words; binding and its absence hold for the method and conditions named. Binding seen in cells or lysates may run through a third protein. Some results given as binding are weak or reduced against the parent protein; the word gives no strength.

Amino acid sequences for entries named in this document (tags omitted).
UniProt P49841: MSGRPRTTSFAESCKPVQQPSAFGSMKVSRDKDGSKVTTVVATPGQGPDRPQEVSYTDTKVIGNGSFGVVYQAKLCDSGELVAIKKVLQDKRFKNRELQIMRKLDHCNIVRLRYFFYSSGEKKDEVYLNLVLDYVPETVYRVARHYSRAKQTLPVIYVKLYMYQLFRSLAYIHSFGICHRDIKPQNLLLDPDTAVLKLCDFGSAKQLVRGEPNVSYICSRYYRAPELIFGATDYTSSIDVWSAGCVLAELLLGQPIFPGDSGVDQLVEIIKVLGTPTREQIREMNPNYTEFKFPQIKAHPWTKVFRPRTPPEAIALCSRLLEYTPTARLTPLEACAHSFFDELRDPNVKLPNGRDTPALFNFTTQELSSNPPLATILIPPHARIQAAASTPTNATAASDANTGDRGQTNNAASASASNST

Biological target: T1, dishevelled 3 (DVL3), endogenous in myeloma cells (human (endogenous in ARP1 and H929)) (UniProt Q92997)
T1 sequence: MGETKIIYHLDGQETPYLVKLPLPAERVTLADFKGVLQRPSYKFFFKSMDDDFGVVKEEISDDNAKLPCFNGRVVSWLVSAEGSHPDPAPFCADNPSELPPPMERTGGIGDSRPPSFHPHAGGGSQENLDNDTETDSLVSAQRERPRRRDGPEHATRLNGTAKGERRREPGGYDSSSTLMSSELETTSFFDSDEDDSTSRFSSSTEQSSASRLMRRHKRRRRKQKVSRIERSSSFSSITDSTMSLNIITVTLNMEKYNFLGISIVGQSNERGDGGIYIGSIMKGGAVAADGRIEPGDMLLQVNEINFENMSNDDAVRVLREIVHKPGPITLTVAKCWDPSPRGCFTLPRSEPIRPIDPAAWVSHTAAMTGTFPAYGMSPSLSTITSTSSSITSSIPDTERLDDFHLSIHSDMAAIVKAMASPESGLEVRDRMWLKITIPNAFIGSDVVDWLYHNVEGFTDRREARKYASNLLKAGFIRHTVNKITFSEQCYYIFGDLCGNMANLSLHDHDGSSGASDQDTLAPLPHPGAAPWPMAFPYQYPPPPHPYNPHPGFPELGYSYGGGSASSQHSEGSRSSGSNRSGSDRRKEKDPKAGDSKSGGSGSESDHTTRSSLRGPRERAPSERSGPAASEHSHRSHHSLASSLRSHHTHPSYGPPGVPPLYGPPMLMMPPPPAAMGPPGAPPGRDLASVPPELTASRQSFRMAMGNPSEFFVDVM
Experiment: co-IP; lysates of myeloma cells (ARP1 and H929 PNPO‐OE; EV cells for comparison), RIPA lysis buffer, Pierce Direct Magnetic IP/Co‐IP Kit, IgG as negative control; also after pre‐treatment with GSH or with Eltrombopag (binding weakened)

binding: binds
Substance: GSK3β, endogenous in myeloma cells (from UniProt P49841 1-420) (enzyme)
